Assay [1] has as its system SARS-CoV-2 -1 PRF reporter mCherry-FSE-GFP(-1). The experiment in a line: mCherry (red) intensity as percent of control; higher = higher upstream reporter expression. The conditions noted are these: 10 µM; 24 h; HEK293T.
Assay [2] has the same test system. The experiment in a line: percent effect, decrease of GFP/mCherry ratio (-1 PRF reporter) relative to controls; higher = stronger frameshift inhibition. The conditions noted are these: 10 µM; 24 h; HEK293T.

Where “and” joins values, the source holds several entries; their conditions need not be identical. Identical values can stand only once. Counter-ions that a name gives are not always drawn. The list shows a part of the results. Repeats in this data set agree poorly, so a single value says little.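 HEK293T cells were given each compound shortly before transfection with a reporter in which red mCherry is followed by the SARS-CoV-2 frameshift element and then GFP in the −1 frame, so GFP appears only after frameshifting.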

Compound `Cc1cccc(C(=O)O)c1O` yielded a mCherry in assay [1] of 90.7%. Also, in assay [2], the percent effect is 0.887%.
Take `CCC1=C[C@@H]2CN(C1)Cc1c([nH]c3ccccc13)[C@@](C(=O)OC)(c1cc3c(cc1OC)N(C)[C@H]1[C@@](O)(C(=O)OC)[C@H](OC(C)=O)[C@]4(CC)C=CCN5CC[C@]31[C@@H]54)C2`: the mCherry in assay [1] came out at 23.9%. Besides, the percent effect in assay [2] was -3.13%.
Consider `CC(=O)N[C@H]1[C@H]([C@H](O)[C@H](O)CO)OC(C(=O)O)=C[C@@H]1NC(=N)N` [zanamivir], for which the mCherry in assay [1] was 84.1%. Besides, the percent effect in assay [2] is -2.35%.
The corresponding values for `Nc1ccc(C(=O)OCC(O)CO)cc1` (centres undefined) [lisadimate] are 81.5% and -8.49%.
Consider `c1ccc([C@H]2CN3CCSC3=N2)cc1` [Levamisole], for which the mCherry in assay [1] was determined as 61.3%. In addition, in assay [2], the percent effect was -0.317%.
The corresponding values for `O=C(O)CCCc1ccccc1` [Sodium Phenylbutyrate] are 105% and -0.546%.
The corresponding values for `CC(C)(Oc1ccc(C(O)c2ccc(Cl)cc2)cc1)C(=O)O` (centres undefined) [fenirofibrate] are 70.5% and 0.598%.
In the case of `N=C(N)c1ccc(OCCCOc2ccc(C(=N)N)cc2Br)c(Br)c1` [dibrompropamidine], in assay [1], the mCherry turned out to be 78.5%. In addition, in assay [2], the percent effect was -4.65%.
The matching figures for `Cc1ccc(S(=O)(=O)NC(=O)NN2CC3CCCC3C2)cc1` (centres undefined) [Gliclazide]: 82.2% and -5.91%.
For `CS(=O)(=O)Nc1cc2occ(NC=O)c(=O)c2cc1Oc1ccccc1` [iguratimod], the mCherry in assay [1] was 92.9%. Also, the percent effect in assay [2] is -2.2%.
In assay [1], `CC[C@H]1OC(=O)[C@H](C)[C@@H](O[C@H]2C[C@@](C)(OC)[C@@H](O)[C@H](C)O2)[C@H](C)[C@@H](O[C@@H]2O[C@H](C)C[C@H](N(C)C)[C@H]2O)[C@](C)(O)C[C@@H](C)CN(C)[C@H](C)[C@@H](O)[C@]1(C)O` [Azithromycin] showed a mCherry of 55.8%. The percent effect in assay [2] was -1.63%.
Compound `Cc1nnc(SCC2=C(C(=O)O)N3C(=O)[C@@H](NC(=O)Cn4cnnn4)[C@H]3SC2)s1` [cefazolin] returned a mCherry in assay [1] of 77.3%. In assay [2], the percent effect is -11.8%.
Compound `N=C(N)NCc1cccc(I)c1` [Iobenguane] had a mCherry in assay [1] of 89.6%. In assay [2], the percent effect is -4.5%.
`C[C@]12CC[C@H]3C(=CCc4cc(O)ccc43)[C@@H]1CCC2=O` came in with a mCherry in assay [1] of 109%. For the same compound, the percent effect in assay [2] was -4.28%.
In turn, `CO[C@H]1/C=C/O[C@@]2(C)Oc3c(C)c(O)c4c(O)c(cc(O)c4c3C2=O)NC(=O)/C(C)=C\C=C\[C@H](C)[C@H](O)[C@@H](C)[C@@H](O)[C@@H](C)[C@H](OC(C)=O)[C@@H]1C` yielded a mCherry in assay [1] of 67.2%. The percent effect in assay [2] is -5.14%.
The corresponding values for `Nc1ncnc2nc[nH]c12` are 93.9% and -9.86%.
In the case of `COc1cc2c(cc1Cc1cccc(Cl)c1F)c(=O)c(C(=O)O)cn2[C@H](CO)C(C)C` [elvitegravir], in assay [1], the mCherry was found to be 97%. Besides, the percent effect in assay [2] is -4.66%.
The matching figures for `CCOC(=O)[C@H](CCc1ccccc1)N[C@H]1CCCN2CCC[C@@H](C(=O)O)N2C1=O` [Inhibace]: 110% and -1.38%.
The corresponding values for `CC(C)(C)C1CCC(CC2=C(O)c3ccccc3C(=O)C2=O)CC1` (centres undefined) [buparvaquone] are 84.1% and -0.989%.
The corresponding values for `CC(C)[C@@H](C)/C=C/[C@@H](C)[C@H]1CC[C@H]2/C(=C/C=C3\C[C@@H](O)CC[C@@H]3C)CCC[C@]12C` [Antitanil] are 99.7% and -3.5%.
In turn, `CC[N+](CC)(CC(=O)Nc1c(C)cccc1C)Cc1ccccc1` [denatonium benzoate] showed a mCherry in assay [1] of 117%. Further, the percent effect in assay [2] was -2.78%.
The matching figures for `O=C(O)CN(CCN(CC(=O)O)CC(=O)O)CCN(CC(=O)O)CC(=O)O` [pentetic acid]: 110% and 2.79%.
The corresponding values for `O=P(O)(O)C(Sc1ccc(Cl)cc1)P(=O)(O)O` [tiludronic acid] are 128% and -4.31%.
The corresponding values for `CC(C)C[C@H](NC(=O)[C@@H](Cc1ccc2ccccc2c1)NC(=O)[C@H](Cc1ccc(O)cc1)NC(=O)[C@H](CO)NC(=O)[C@H](Cc1c[nH]c2ccccc12)NC(=O)[C@H](Cc1cnc[nH]1)NC(=O)[C@@H]1CCC(=O)N1)C(=O)N[C@@H](CCCN=C(N)N)C(=O)N1CCC[C@H]1C(=O)NCC(N)=O` [nafarelin] are 91.5% and 0.81%.
In turn, `CC(C)(O)CC(C)(O)c1ccc(Cl)cc1` (centres undefined) [fenpentadiol] displayed a mCherry in assay [1] of 102%. In addition, the percent effect in assay [2] is -0.138%.
Regarding `NS(=O)(=O)c1cc(C2(O)NC(=O)c3ccccc32)ccc1Cl` (centres undefined) [chlortalidone], the mCherry in assay [1] turned out to be 127%. In assay [2], the percent effect was -3.69%.
The matching figures for `CC(C)(C)NCC(O)COc1nsnc1N1CCOCC1` (centres undefined) [Blocarden]: 114% and -7.37%.
The corresponding values for `N=C(N)c1ccc(N=NNc2ccc(C(=N)N)cc2)cc1` are 119% and -3.05%.
In assay [1], `COc1cc(N)c(Cl)cc1C(=O)NC1CCN(CCCOc2ccc(F)cc2)CC1OC` (centres undefined) [cisapride] returned a mCherry of 56.3%. The percent effect in assay [2] was -2.92%.
The corresponding values for `Oc1ccc(C2CNCCc3c2cc(O)c(O)c3Cl)cc1` (centres undefined) [fenoldopam] are 109% and 0.724%.
The corresponding values for `NC[C@H]1O[C@H](O[C@H]2[C@H](O)[C@@H](O[C@H]3O[C@H](CO)[C@@H](O)[C@H](N)[C@H]3O)[C@H](N)C[C@@H]2N)[C@H](O)[C@@H](O)[C@@H]1O` [Kantrex] are 107% and -10.3%.
As for `CN1CCCN=C1COC(=O)C(O)(c1ccccc1)C1CCCCC1` (centres undefined), the mCherry in assay [1] came out at 99.4%. Also, the percent effect in assay [2] is -0.879%.
The matching figures for `CCCCc1nc(Cl)c(CO)n1Cc1ccc(-c2ccccc2-c2nnn[nH]2)cc1` [losartan]: 94.5% and -1.09%.
The matching figures for `C[C@@H]1CN(c2c(F)c(F)c3c(=O)c(C(=O)O)cn(C4CC4)c3c2F)C[C@H](C)N1` [orbifloxacin]: 87.7% and 1.31%.
The matching figures for `CC(C)CCC[C@@H](C)[C@H]1CC(=O)C2=C3CC[C@H]4C[C@@H](O)CC[C@]4(C)[C@H]3CC[C@@]21C` [colestolone]: 119% and -1.6%.
In assay [1], `NCCCC[C@H](N[C@@H](CCc1ccccc1)C(=O)O)C(=O)N1CCC[C@H]1C(=O)O` came in with a mCherry of 99.6%. The percent effect in assay [2] is -1.62%.
Compound `CCC[C@@H]1C[C@@H](C(=O)N[C@@H]([C@H]2O[C@H](SC)[C@H](O)[C@@H](O)[C@H]2O)[C@@H](C)O)N(C)C1` [Lincomycin] gave a mCherry in assay [1] of 101%. The percent effect in assay [2] was 0.559%.
The matching figures for `CCn1cc(C(=O)O)c(=O)c2cnc(N3CCCC3)nc21` [piromidic acid]: 94.5% and -3.35%.
The corresponding values for `O=C1OC(CN2CCOCC2)CN1/N=C/c1ccc([N+](=O)[O-])o1` (centres undefined) [furaltadone] are 118% and -2.11%.
The corresponding values for `O=CNc1ncc([N+](=O)[O-])s1` [forminitrazole] are 95.5% and -1.81%.
As to `CC(C)C[C@H](NC(=O)[C@@H](Cc1c[nH]c2ccccc12)NC(=O)[C@H](Cc1ccc(O)cc1)NC(=O)[C@H](CO)NC(=O)[C@H](Cc1c[nH]c2ccccc12)NC(=O)[C@H](Cc1c[nH]cn1)NC(=O)[C@@H]1CCC(=O)N1)C(=O)N[C@@H](CCCNC(=N)N)C(=O)N1CCC[C@H]1C(=O)NCC(N)=O` [Triptorelin], the mCherry in assay [1] was 65.4%. Besides, the percent effect in assay [2] is -6.73%.
The corresponding values for `O=C(O)[C@@H](S)[C@@H](S)C(=O)O` [succimer] are 87.7% and -8.47%.
The corresponding values for `C[C@H]1O[C@@H](O[C@H]2CC[C@@]3(C)[C@H](CC[C@@H]4[C@@H]3C[C@@H](O)[C@]3(C)[C@@H](C5=CC(=O)OC5)CC[C@]43O)C2)C[C@H](O)[C@@H]1O[C@H]1C[C@H](O)[C@H](O[C@H]2C[C@H](O)[C@H](O[C@@H]3O[C@H](CO)[C@@H](O)[C@H](O)[C@H]3O)[C@@H](C)O2)[C@@H](C)O1` [deslanoside] are 13.5% and -8.3%.
The corresponding values for `CNCC[C@H](Oc1cccc2ccccc12)c1cccs1` [duloxetine] are 122% and -4.75%.
`CCC1(c2ccccc2)NC(=O)N(C)C1=O` (centres undefined) [mephenytoin]: the mCherry in assay [1] was found to be 84.3%. Besides, in assay [2], the percent effect was -5.28%.
The matching figures for `O.O.O.O.O.O.O.O.O.O.O.O.O.O.O.O.O.O.O.O.O=S(=O)([O][Al])OC[C@H]1O[C@@](COS(=O)(=O)[O][Al])(O[C@H]2O[C@H](COS(=O)(=O)[O][Al])[C@@H](OS(=O)(=O)[O][Al])[C@H](OS(=O)(=O)[O][Al])[C@H]2OS(=O)(=O)[O][Al])[C@@H](OS(=O)(=O)[O][Al])[C@@H]1OS(=O)(=O)[O][Al].[Al]`: 116% and -6.08%.
The matching figures for `C=CCN1CCCC1CNC(=O)c1cc2nn[nH]c2cc1OC` (centres undefined) [alizapride]: 92.4% and -1.9%.
The corresponding values for `Nc1ccc(C(=O)NCC(=O)O)cc1` are 107% and -1.47%.
Regarding `CCCCN(CCCC)CCC(O)c1cc2c(Cl)cc(Cl)cc2c2cc(C(F)(F)F)ccc12` (centres undefined) [halofantrine], in assay [1], the mCherry was determined as 116%. Further, the percent effect in assay [2] is 2.73%.
Take `CCCOc1cc(N)ccc1C(=O)OCCN(CC)CC` [propoxycaine]: the mCherry in assay [1] was 83.4%. The percent effect in assay [2] is -1.97%.
The matching figures for `Oc1ccc(C2CNCCc3c2cc(O)c(O)c3Cl)cc1` (centres undefined) [Fenoldopam·HCl]: 71.4% and -2.61%.
The matching figures for `COc1cc([C@@H]2Oc3c(O)cc([C@H]4Oc5cc(O)cc(O)c5C(=O)[C@@H]4O)cc3[C@H]2CO)ccc1O` [silicristin]: 101% and -3.71%.
The matching figures for `CC/C=C\C/C=C\C/C=C\C/C=C\C/C=C\CCCC(=O)O` [icosapent]: 102% and -2.27%.
`COc1cc(NCCCC(C)N)c2ncccc2c1` (centres undefined) [quinocide] yielded a mCherry in assay [1] of 85.3%. For the same compound, the percent effect in assay [2] is -2.27%.
The corresponding values for `CC(C(=O)O)c1ccc(CC2CCCC2=O)cc1` (centres undefined) [loxoprofen] are 96.9% and -3.15%.
The corresponding values for `COc1ccc(-c2nc(C(F)(F)F)[nH]c2-c2ccc(OC)cc2)cc1` [flumizole] are 103% and -4.93%.
The matching figures for `CC[C@@]1(O)C[C@H](O[C@H]2C[C@H](N(C)C)[C@H](O[C@H]3C[C@H](O)[C@H](O[C@H]4CCC(=O)[C@H](C)O4)[C@H](C)O3)[C@H](C)O2)c2c(cc3c(c2O)C(=O)c2c(O)cccc2C3=O)[C@H]1C(=O)OC` [Aclarubicin]: 93.2% and 33.3%.
`Cc1ccc(N(CC2=NCCN2)c2cccc(O)c2)cc1` [phentolamine]: in assay [1], the mCherry was 117% and 109%. Moreover, the percent effect in assay [2] is 2.12% and -8.51%.
Consider `CC(C)(CO)NCC(O)c1ccccc1` (centres undefined) [fepradinol], for which the mCherry in assay [1] is 78%. The percent effect in assay [2] is -3.72%.
The corresponding values for `CN1Cc2c(N)cccc2C(c2ccccc2)C1` (centres undefined) are 96.9% and -5.9%.
`CNCC[C@@H](Oc1ccccc1C)c1ccccc1`: the mCherry in assay [1] is 91.2%. Moreover, in assay [2], the percent effect was -0.857%.
The matching figures for `CN1CCC(Nc2ncc3ncnc(Nc4ccc(F)c(Cl)c4)c3n2)CC1` [falnidamol]: 93.4% and -3.66%.
